Laboratory results reported in article PMC6137095, “Sertraline, chlorprothixene, and chlorpromazine characteristically interact with the REST-binding site of the corepressor mSin3, showing medulloblastoma cell growth inhibitory activities” (Scientific Reports, 2018).

Target: T1, mSin3B PAH1 domain (Mus musculus, UniProt Q62141)
T1 construct: gene Sin3b; PAH1 domain, a.a; 28–107 with a Met at the N-terminus (GST fusion for WaterLOGSY/STD)
T1 sequence (Q62141 28-107): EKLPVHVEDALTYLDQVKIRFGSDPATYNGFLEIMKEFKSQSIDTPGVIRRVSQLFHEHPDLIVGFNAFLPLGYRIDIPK
Experiment: WaterLOGSY NMR titration; STD and 1H-15N HSQC
Type: binding

`CN[C@H]1CC[C@@H](c2ccc(Cl)c(Cl)c2)c2ccccc21` [YN31, sertraline] was tested, and the Kd was 39 ± 22 µM.
